# Assay results: patent publication US20220363689A1, “INHIBITOR OF BTK AND MUTANTS THEREOF” (Newave Pharmaceutical Inc., priority 2019, published 2022)
# Amino acid sequences for entries named in this document (tags omitted). A change or cut given only in a name is not applied to a line headed by its entry.
# UniProt Q06187, whole entry: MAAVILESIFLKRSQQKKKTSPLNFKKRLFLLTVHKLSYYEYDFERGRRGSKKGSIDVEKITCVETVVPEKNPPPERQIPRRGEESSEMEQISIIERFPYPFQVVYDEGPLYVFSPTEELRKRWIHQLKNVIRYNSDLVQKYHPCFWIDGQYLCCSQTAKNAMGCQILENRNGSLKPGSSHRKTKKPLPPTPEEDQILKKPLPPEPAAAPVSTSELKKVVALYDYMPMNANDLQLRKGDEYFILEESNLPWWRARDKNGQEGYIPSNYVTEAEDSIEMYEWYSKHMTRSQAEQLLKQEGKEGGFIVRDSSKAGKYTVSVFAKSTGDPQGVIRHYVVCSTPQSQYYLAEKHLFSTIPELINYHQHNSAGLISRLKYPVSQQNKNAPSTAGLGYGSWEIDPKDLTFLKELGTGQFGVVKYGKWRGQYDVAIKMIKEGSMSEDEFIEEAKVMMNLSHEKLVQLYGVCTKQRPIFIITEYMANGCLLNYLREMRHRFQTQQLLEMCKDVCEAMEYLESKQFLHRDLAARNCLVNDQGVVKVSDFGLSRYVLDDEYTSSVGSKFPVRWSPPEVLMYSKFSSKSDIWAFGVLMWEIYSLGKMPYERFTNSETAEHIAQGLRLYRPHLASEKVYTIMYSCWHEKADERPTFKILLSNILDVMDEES
# UniProt Q06187, whole entry C481S: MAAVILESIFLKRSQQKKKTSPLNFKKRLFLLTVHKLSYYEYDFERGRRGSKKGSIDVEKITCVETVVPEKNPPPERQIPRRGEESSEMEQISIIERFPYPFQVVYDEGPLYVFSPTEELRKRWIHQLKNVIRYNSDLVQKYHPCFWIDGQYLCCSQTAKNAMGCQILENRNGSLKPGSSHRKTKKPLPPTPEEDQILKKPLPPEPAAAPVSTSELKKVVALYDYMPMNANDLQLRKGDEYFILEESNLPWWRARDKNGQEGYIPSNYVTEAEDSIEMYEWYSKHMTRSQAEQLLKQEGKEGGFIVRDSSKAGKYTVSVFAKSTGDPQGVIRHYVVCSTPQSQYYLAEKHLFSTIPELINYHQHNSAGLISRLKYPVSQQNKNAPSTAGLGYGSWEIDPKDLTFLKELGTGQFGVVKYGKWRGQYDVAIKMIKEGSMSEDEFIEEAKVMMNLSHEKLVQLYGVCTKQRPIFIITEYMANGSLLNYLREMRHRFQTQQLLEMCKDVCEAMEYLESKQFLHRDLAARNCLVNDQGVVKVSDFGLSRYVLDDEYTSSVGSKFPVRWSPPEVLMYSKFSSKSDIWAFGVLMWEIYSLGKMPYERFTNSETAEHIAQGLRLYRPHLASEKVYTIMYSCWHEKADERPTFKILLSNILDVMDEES
# The match of structure and compound is tentative.
# How the values were obtained:
# Type in all cases: biochemical
# [1] = molecular target: T1, WT BTK (Homo sapiens, UniProt Q06187); experiment: In vitro dialysis assay (irreversibility assay), WT BTK; details: reversible or irreversible/covalent inhibition after 24 h dialysis
# [2] = molecular target: T1, WT BTK; experiment: Caliper-based kinase assay, WT BTK; details: read-out: WT BTK IC50 (nM) (irreversible inhibition); 0.5 nM enzyme, ATP 16 μM, room temperature 3 h
# [3] = molecular target: C481S Btk (Homo sapiens, UniProt Q06187, C481S); experiment: Caliper-based kinase assay, C481S BTK; details: read-out: C481S BTK IC50 (nM) (reversible inhibition); 0.5 nM enzyme, ATP 16 μM, room temperature 3 h
compound,measurement,setting,value
C=CC(=O)Nc1cc(Nc2nc(-c3ccnc(N4CCn5c(cc6c5CC(C)(C)C6)C4=O)c3CO)cn(C)c2=O)ccc1N1CCC(N2CCC(F)(F)CC2)C[C@@H]1C (stereo partly drawn),Conclusion (WT BTK),[1],Irreversible/covalent inhibition
same,IC50,[2],0.058 nM
same,IC50,[3],0.4 nM
